{"source": "the supplement of paper PMC8728848", "binders": {"B1": {"name": "Epa2 (Candida glabrata) (protein)", "chain": "MGSSHHHHHHSSGLVPRGSHMASSKDPTSFPMGCSPQVLKTQPGLAVKLYSYGHPVPGCAYNTYQYPDFPRSGYKKERKLADITGVNGRIDIDLKPNDPCRVLSGNLPSNYNYQNTLTYTNFTMILYGYFQPKVTGYHTFNLEADDLLFMNLGAGNAFDCCRAESTLDNFGNYQSYSIWGTDKATADLTVFLVSGIYYPIRLFYVNRDNNAVLDFSFSTEFNKEIIHDFTSYFFSASDEEQCPGNI"}}, "assay_in_all_cases": "glycan array binding signal (z-score within array); higher = stronger binding", "details_in_all_cases": "glycan notation: IUPAC condensed, linker removed", "key": {"Fuc(a1-2)Gal": {"target": "Fuc(a1-2)Gal", "method_in_brief": "(§1)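 Glycan array binding is given as a within-array Z-score, which can be read as non-binding when negative. The arrays, 3228 of them, came from the Consortium for Functional Glycomics database and were retained only where the protein sequence was available. Z-scores were averaged across arrays of the same protein sequence at different concentrations or buffers and across linkers.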"}, "Fuc(a1-2)Gal(b1-3)GalNAc": {"target": "Fuc(a1-2)Gal(b1-3)GalNAc", "method_in_brief": "as §1"}, "[1]": {"target": "Fuc(a1-2)Gal(b1-3)GalNAc(a1-3)[Fuc(a1-2)]Gal(b1-4)Glc", "method_in_brief": "as §1"}, "[2]": {"target": "Fuc(a1-2)Gal(b1-3)GalNAc(a1-3)[Fuc(a1-2)]Gal(b1-4)GlcNAc", "method_in_brief": "as §1"}, "[3]": {"target": "Fuc(a1-2)Gal(b1-3)GalNAc(b1-3)Gal", "method_in_brief": "as §1"}, "[4]": {"target": "Fuc(a1-2)Gal(b1-3)GalNAc(b1-3)Gal(a1-4)Gal(b1-4)Glc", "method_in_brief": "as §1"}, "[5]": {"target": "Fuc(a1-2)Gal(b1-3)GalNAc(b1-4)[Neu5Ac(a2-3)]Gal(b1-4)Glc", "method_in_brief": "as §1"}, "Fuc(a1-2)Gal(b1-3)GlcNAc": {"target": "Fuc(a1-2)Gal(b1-3)GlcNAc", "method_in_brief": "as §1"}, "[6]": {"target": "Fuc(a1-2)Gal(b1-3)GlcNAc(b1-2)Man(a1-3)[Fuc(a1-2)Gal(b1-3)GlcNAc(b1-2)Man(a1-6)]Man(b1-4)GlcNAc(b1-4)GlcNAc", "method_in_brief": "as §1"}, "[7]": {"target": "Fuc(a1-2)Gal(b1-3)GlcNAc(b1-2)Man(a1-3)[Fuc(a1-2)Gal(b1-3)GlcNAc(b1-2)Man(a1-6)]Man(b1-4)GlcNAc(b1-4)[Fuc(a1-6)]GlcNAc", "method_in_brief": "as §1"}, "[8]": {"target": "Fuc(a1-2)Gal(b1-3)GlcNAc(b1-3)Gal(b1-4)Glc", "method_in_brief": "as §1"}, "[9]": {"target": "Fuc(a1-2)Gal(b1-3)GlcNAc(b1-3)GalNAc", "method_in_brief": "as §1"}, "[10]": {"target": "Fuc(a1-2)Gal(b1-3)GlcNAc(b1-3)[Fuc(a1-2)Gal(b1-3)GlcNAc(b1-6)]GalNAc", "method_in_brief": "as §1"}, "[11]": {"target": "Fuc(a1-2)Gal(b1-3)GlcNAc(b1-3)[Gal(b1-4)GlcNAc(b1-6)]Gal(b1-4)Glc", "method_in_brief": "as §1"}, "[12]": {"target": "Fuc(a1-2)Gal(b1-3)GlcNAc(b1-3)[Neu5Ac(a2-6)Gal(b1-4)GlcNAc(b1-6)]Gal(b1-4)Glc", "method_in_brief": "as §1"}, "[13]": {"target": "Fuc(a1-2)Gal(b1-3)GlcNAc6S", "method_in_brief": "as §1"}, "[14]": {"target": "Fuc(a1-2)Gal(b1-3)[Fuc(a1-4)]GlcNAc", "method_in_brief": "as §1"}, "[15]": {"target": "Fuc(a1-2)Gal(b1-3)[Fuc(a1-4)]GlcNAc(b1-2)Man(a1-3)[Fuc(a1-2)Gal(b1-3)[Fuc(a1-4)]GlcNAc(b1-2)Man(a1-3)]Man(b1-4)GlcNAc(b1-4)GlcNAc", "method_in_brief": "as §1"}, "[16]": {"target": "Fuc(a1-2)Gal(b1-3)[Fuc(a1-4)]GlcNAc(b1-2)Man(a1-3)[Fuc(a1-2)Gal(b1-3)[Fuc(a1-4)]GlcNAc(b1-2)Man(a1-6)]Man(b1-4)GlcNAc(b1-4)[Fuc(a1-6)]GlcNAc(b1-4)[Fuc(a1-6)]GlcNAc", "method_in_brief": "as §1"}, "[17]": {"target": "Fuc(a1-2)Gal(b1-3)[Fuc(a1-4)]GlcNAc(b1-3)[Fuc(a1-3)[Gal(b1-4)]GlcNAc(b1-6)]Gal(b1-4)Glc", "method_in_brief": "as §1"}, "[18]": {"target": "Fuc(a1-2)Gal(b1-3)[Fuc(a1-4)]GlcNAc(b1-3)[Gal(b1-4)GlcNAc(b1-6)]Gal(b1-4)Glc", "method_in_brief": "as §1"}, "[19]": {"target": "Fuc(a1-2)Gal(b1-4)Fuc(a1-3)]GlcNAc(b1-2)Man(a1-3)[Fuc(a1-2)Gal(b1-4)[Fuc(a1-3)]GlcNAc(b1-2)Man(a1-6)]Man(b1-4)GlcNAc(b1-4)GlcNAc", "method_in_brief": "as §1"}, "Fuc(a1-2)Gal(b1-4)Glc": {"target": "Fuc(a1-2)Gal(b1-4)Glc", "method_in_brief": "as §1"}, "Fuc(a1-2)Gal(b1-4)Glc6S": {"target": "Fuc(a1-2)Gal(b1-4)Glc6S", "method_in_brief": "as §1"}, "Fuc(a1-2)Gal(b1-4)GlcNAc": {"target": "Fuc(a1-2)Gal(b1-4)GlcNAc", "method_in_brief": "as §1"}, "[20]": {"target": "Fuc(a1-2)Gal(b1-4)GlcNAc(b1-2)Man", "method_in_brief": "as §1"}, "[21]": {"target": "Fuc(a1-2)Gal(b1-4)GlcNAc(b1-2)Man(a1-3)[Fuc(a1-2)Gal(b1-4)GlcNAc(b1-2)Man(a1-6)]Man(b1-4)GlcNAc(b1-4)GlcNAc", "method_in_brief": "as §1"}, "[22]": {"target": "Fuc(a1-2)Gal(b1-4)GlcNAc(b1-2)Man(a1-3)[Fuc(a1-2)Gal(b1-4)GlcNAc(b1-2)Man(a1-6)]Man(b1-4)GlcNAc(b1-4)[Fuc(a1-6)]GlcNAc", "method_in_brief": "as §1"}, "[23]": {"target": "Fuc(a1-2)Gal(b1-4)GlcNAc(b1-2)[Fuc(a1-2)Gal(b1-4)GlcNAc(b1-4)]Man(a1-3)[Fuc(a1-2)Gal(b1-4)GlcNAc(b1-2)Man(a1-6)]Man(b1-4)GlcNAc(b1-4)GlcNAc", "method_in_brief": "as §1"}, "[24]": {"target": "Fuc(a1-2)Gal(b1-4)GlcNAc(b1-3)Gal(b1-4)GlcNAc", "method_in_brief": "as §1"}}, "note": "Some of the results follow."}
{"binder": "B1", "values": [{"measurement": "glycan array binding signal (z-score)", "setting": "Fuc(a1-2)Gal", "value": 0.175}, {"measurement": "glycan array binding signal (z-score)", "setting": "Fuc(a1-2)Gal(b1-3)GalNAc", "value": -0.313}, {"measurement": "glycan array binding signal (z-score)", "setting": "[1]", "value": -0.114}, {"measurement": "glycan array binding signal (z-score)", "setting": "[2]", "value": -0.515}, {"measurement": "glycan array binding signal (z-score)", "setting": "[3]", "value": 1.21}, {"measurement": "glycan array binding signal (z-score)", "setting": "[4]", "value": -0.162}, {"measurement": "glycan array binding signal (z-score)", "setting": "[5]", "value": -0.547}, {"measurement": "glycan array binding signal (z-score)", "setting": "Fuc(a1-2)Gal(b1-3)GlcNAc", "value": -0.642}, {"measurement": "glycan array binding signal (z-score)", "setting": "[6]", "value": 0.111}, {"measurement": "glycan array binding signal (z-score)", "setting": "[7]", "value": -0.074}, {"measurement": "glycan array binding signal (z-score)", "setting": "[8]", "value": -0.378}, {"measurement": "glycan array binding signal (z-score)", "setting": "[9]", "value": -0.502}, {"measurement": "glycan array binding signal (z-score)", "setting": "[10]", "value": 0.161}, {"measurement": "glycan array binding signal (z-score)", "setting": "[11]", "value": -0.359}, {"measurement": "glycan array binding signal (z-score)", "setting": "[12]", "value": -0.78}, {"measurement": "glycan array binding signal (z-score)", "setting": "[13]", "value": -0.103}, {"measurement": "glycan array binding signal (z-score)", "setting": "[14]", "value": 0.672}, {"measurement": "glycan array binding signal (z-score)", "setting": "[15]", "value": 0.657}, {"measurement": "glycan array binding signal (z-score)", "setting": "[16]", "value": 0.704}, {"measurement": "glycan array binding signal (z-score)", "setting": "[17]", "value": 0.365}, {"measurement": "glycan array binding signal (z-score)", "setting": "[18]", "value": 1.01}, {"measurement": "glycan array binding signal (z-score)", "setting": "[19]", "value": 0.533}, {"measurement": "glycan array binding signal (z-score)", "setting": "Fuc(a1-2)Gal(b1-4)Glc", "value": -0.711}, {"measurement": "glycan array binding signal (z-score)", "setting": "Fuc(a1-2)Gal(b1-4)Glc6S", "value": -0.085}, {"measurement": "glycan array binding signal (z-score)", "setting": "Fuc(a1-2)Gal(b1-4)GlcNAc", "value": -0.046}, {"measurement": "glycan array binding signal (z-score)", "setting": "[20]", "value": 0.755}, {"measurement": "glycan array binding signal (z-score)", "setting": "[21]", "value": -0.505}, {"measurement": "glycan array binding signal (z-score)", "setting": "[22]", "value": -0.52}, {"measurement": "glycan array binding signal (z-score)", "setting": "[23]", "value": 0.385}, {"measurement": "glycan array binding signal (z-score)", "setting": "[24]", "value": 0.003}]}
